Assay results reported in the supplement of paper PMC10735217.
Counter-ions that a name gives are not always drawn. This is one part of the list. This data set is noisy: repeats of one test often differ as much as different tests do.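 Human kidney-derived cells stably carry a construct in which eight TEAD-binding elements drive luciferase, measured by luminescence in a drug-repurposing library screen. A hit is any compound whose signal exceeds the plate mean by more than five robust Z scores.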

Test system: HEK293A TEAD-LUC reporter
Assay: TEAD-luciferase reporter activity (YAP activation), robust Z score vs plate; higher = stronger YAP/TEAD activation
Conditions: 24 h

Row | Compound | TEAD-luciferase reporter activity (compound concentration: 200 nM) | TEAD-luciferase reporter activity (compound concentration: 2 uM) | TEAD-luciferase reporter activity (compound concentration: 10 uM)
1 | COC[C@H](C)Oc1cc(Oc2cnc(C(=O)N3CCC3)cn2)cc(C(=O)Nc2cnc(C)cn2)c1 | inactive: -2.52 | inactive: -1.2 | inactive: -0.649
2 | c1ccc(-c2noc(-c3ccccc3OC3CNC3)n2)cc1 | inactive: -0.159 | inactive: 1.33 | active: 6.58
3 | COCCc1ccc(-c2c(C)nc3c(N4CCOCC4)ccnn23)cn1 | inactive: 0.72 | inactive: -0.619 | inactive: 0.634
4 | CC(C)(C)NCC(O)COc1ccccc1NC(=O)c1ccco1 (stereo unspecified) [ancarolol] | inactive: -1.93 | inactive: 0.761 | inactive: -0.197
5 | C[C@@H](OC[C@@]1(c2ccccc2)CC[C@]2(CCC(=O)N2)CN1)c1cc(C(F)(F)F)cc(C(F)(F)F)c1 [Rolapitant hydrochloride] | active: 5.52 | inactive: -1.35 | inactive: 0.452
6 | CCCCCCCCCCCCSC[C@@H](COP(=O)(O)OC[C@H]1O[C@@H](n2cc(C)c(=O)[nH]c2=O)C[C@@H]1F)OCCCCCCCCCC |  | inactive: -1.02 | inactive: -1.52
7 | CCCCCOc1ccc(C(O)(CCN(C)C)C2CCCCC2)cc1 (stereo unspecified) | inactive: -2.73 | inactive: -1.26 | inactive: 4.29
8 | COc1c(Nc2ccc(S(C)(=O)=O)nc2C)ncnc1OC1CCN(C(=O)OC(C)C)CC1 | inactive: -1.73 | inactive: -0.579 | inactive: -0.418
9 | O=C(Cc1ccc(C(F)(F)F)cc1)Nc1ccc2cnn(CCN3CCCC3)c2c1 | inactive: -0.755 | inactive: -1.58 | inactive: -0.355
10 | CCCCCCCC/C=C/CCCCCCCC(=O)OC[C@H]1O[C@@H](n2ccc(N)nc2=O)C(F)(F)[C@@H]1O [Gemcitabine elaidate] | inactive: -2.39 | inactive: -2.21 | inactive: 0.752
11 | Cc1ccccc1C(=O)NC1CCN(c2ccc3ncc(-c4cccc(C(F)(F)F)c4)n3n2)CC1 | inactive: -2.7 |  | inactive: -0.691
12 | CC(C)c1ccc(CC(=O)NC(C)c2ccc(OCC(F)(F)F)cn2)cc1 (stereo unspecified) | inactive: -0.614 | inactive: -1.47 | inactive: -0.797
13 | COc1ccc(Cl)cc1[C@@]1(F)C(=O)Nc2cc(C(F)(F)F)ccc21 [Flindokalner] | inactive: -0.677 | inactive: -0.219 | active: 8.78
14 | COc1cc(C2CN=C(c3ccc4c(ccn4C)c3)O2)cc(OC)c1OC (stereo unspecified) | inactive: -1.2 | inactive: 4.25 | inactive: 4.79
15 | O=C1O[C@]2(CC[C@H](C(=O)Nc3ccn(-c4ccccc4F)n3)CC2)c2cnccc21 [NPY-Y5 antagonist, Banyu] | inactive: 0.0207 |  | inactive: 3.9
16 | O=C1O[C@]2(CC[C@H](C(=O)Nc3ccn(-c4ccccc4F)n3)CC2)c2cnccc21 [NPY-Y5 antagonist] |  | inactive: 0.291 | 
17 | NCCCBr | inactive: -0.4 | inactive: -1.81 | inactive: -1.22
18 | O=C(O)C[C@H](CC1CCN(C(=O)CCc2ccc3c(n2)NCCC3)CC1)[C@H]1CNc2ccccc2C1 | inactive: -0.818 | inactive: -1.46 | inactive: -1.53
19 | COc1cccc2c1C(=O)c1c(O)c3c(c(O)c1C2=O)CC(O)(C(C)=O)CC3OC1CC(N)C(O)C(C)O1 (stereo unspecified) [Daunorubicin] | inactive: -0.532 | inactive: 0.475 | inactive: 1.99

Some of the entries so far, in CSV form:
Row,Compound,TEAD-luciferase reporter activity (compound concentration: 200 nM),TEAD-luciferase reporter activity (compound concentration: 2 uM),TEAD-luciferase reporter activity (compound concentration: 10 uM)
13,COc1ccc(Cl)cc1[C@@]1(F)C(=O)Nc2cc(C(F)(F)F)ccc21 [Flindokalner],inactive: -0.677,inactive: -0.219,active: 8.78
14,COc1cc(C2CN=C(c3ccc4c(ccn4C)c3)O2)cc(OC)c1OC (stereo unspecified),inactive: -1.2,inactive: 4.25,inactive: 4.79
15,"O=C1O[C@]2(CC[C@H](C(=O)Nc3ccn(-c4ccccc4F)n3)CC2)c2cnccc21 [NPY-Y5 antagonist, Banyu]",inactive: 0.0207,,inactive: 3.9

Later entries

Row | Compound | TEAD-luciferase reporter activity (compound concentration: 200 nM) | TEAD-luciferase reporter activity (compound concentration: 2 uM) | TEAD-luciferase reporter activity (compound concentration: 10 uM)
20 | O=C(O)Cc1ccc(CC2(CNS(=O)(=O)c3ccc(Cl)cc3)CCCC2)cc1 | inactive: -1.03 | inactive: -1.9 | inactive: -1.13
21 | CC(C)=CCOc1cc(NC(=O)c2ccsc2)ccc1Cl | inactive: -0.921 | inactive: 0.946 | inactive: -0.471
22 | CC(C)n1c(Nc2cccnc2)nc2cnc(Nc3ccc(N4CCN(C)CC4)cc3)nc21 | inactive: -0.446 | inactive: -1.54 | inactive: -0.518
23 | CCCNCC(O)COc1ccccc1C(=O)CCc1ccccc1 (stereo unspecified) [Rythmol] | inactive: -0.57 |  | inactive: -1.8
24 | CCCNCC(O)COc1ccccc1C(=O)CCc1ccccc1 (stereo unspecified) [propafe    SR] |  | inactive: -2.97 | 
25 | C[C@@H](O)[C@H](N)C(=O)N1CCC[C@H]1C(=O)N1CCC[C@H]1C(=O)N[C@H](C(N)=O)[C@@H](C)O [Rapastinel] |  | inactive: -1.08 | 
26 | C[C@@H](O)[C@H](N)C(=O)N1CCC[C@H]1C(=O)N1CCC[C@H]1C(=O)N[C@H](C(N)=O)[C@@H](C)O | inactive: 0.274 |  | inactive: -0.182
27 | C[C@H](Oc1ccc(-c2nc(-c3ccc4[nH]cnc4c3)no2)cc1C(F)(F)F)C(F)(F)F | inactive: -2.22 | inactive: 0.473 | inactive: -0.528
28 | C[C@H](C(=O)O)c1ccc2cc(OCc3ccc4ccccc4n3)ccc2c1 | inactive: 1.77 | inactive: -0.336 | inactive: 3.69
29 | O=C(O)[C@H](CC1CCC1)c1cc(Cl)c(OCC(F)(F)F)c(-c2ccc(C(F)(F)F)cc2)c1 | inactive: 0.251 | inactive: 0.0239 | inactive: 2.5
30 | CCn1c(=O)cc(-c2cccc(Br)c2)c2ccc(C)nc21 | inactive: 4.19 | inactive: -0.435 | inactive: -1.93
31 | C=C[C@]1(C)C[C@@H](OC(=O)CS[C@@H]2C[C@H]3CC[C@@H](C2)N3C)[C@]2(C)[C@H](C)CC[C@]3(CCC(=O)[C@H]32)[C@@H](C)[C@@H]1O [retapamulin] | inactive: 0.059 | inactive: -0.515 | inactive: 1.87
32 | CCN1CCN(C(=O)c2cnc3cc(C)nn3c2)CC1 | inactive: -0.536 |  | inactive: -0.354
33 | NC(=O)CC[C@H](NC(=O)Cc1ccccc1)C(=O)O [antineoplaston AS2-5] | inactive: -1.34 | inactive: -0.169 | inactive: 0.528
34 | COc1cccc(C(=O)N2CC3(Cc4ccccc4N(C(C)=O)C3)C2)c1 | inactive: 3.07 |  | inactive: -0.428
35 | C#C[C@]1(O)CC[C@H]2[C@@H]3CCc4cc(O)ccc4[C@H]3CC[C@@]21C | inactive: 1.14 |  | inactive: 0.852
36 | C#C[C@]1(O)CC[C@H]2[C@@H]3CCc4cc(O)ccc4[C@H]3CC[C@@]21C [ethinyl estradiol, Cassenne] |  | inactive: -1.12 | 
37 | CCN(CC)CCNC1c2cc(OC)ccc2OCc2ncccc21 (stereo unspecified) | inactive: -1.51 | inactive: -0.0947 | inactive: 1.56
38 | N[C@H](CCC(=O)N[C@@H](Cc1c[nH]c2ccccc12)C(=O)O)C(=O)O [golotimod] | inactive: -0.64 | inactive: -0.5 | inactive: 0.636

Row | Compound | TEAD-luciferase reporter activity (compound concentration: 200 nM) | TEAD-luciferase reporter activity (compound concentration: 2 uM) | TEAD-luciferase reporter activity (compound concentration: 10 uM)
39 | C[N+](C)(C)CCOP(=O)([O-])OCCCCCCCCCCCCCCCCCCc1ccc(I)cc1 | inactive: -1.08 | inactive: -1.15 | inactive: -0.974
40 | CC(C)N1CC2CCC(C1)N2C(=O)c1ccc2c(c1)OCO2 | inactive: -0.404 |  | inactive: -0.791
41 | O=C(NC1Cc2ccccc2C1)c1ccc(F)cc1 | inactive: 0.197 | inactive: -1.24 | inactive: 3.62
42 | Cn1nnc(-c2ccc(-c3ccc(N4C[C@H](CO)OC4=O)cc3F)cn2)n1 [Tedizolid] | inactive: -1.12 | inactive: 1.97 | inactive: 1.49
43 | CCCCCCOc1cc(C)c(O)c(C)c1C | inactive: 1.98 | inactive: 0.0536 | inactive: -2.17
44 | O=C(NC1Cc2ccccc2C1)c1ccc2c(c1)OC(F)(F)O2 | inactive: 0.144 | inactive: 3.21 | active: 9.54
45 | CC1(C)C[C@H]1C(=O)N/C(=C\CCCCSC[C@@H](N)C(=O)O)C(=O)O [Cilastatin sodium] | inactive: 0.00403 | inactive: 1.78 | inactive: 4.65
46 | COc1cc(/C=C/C(=O)CC(=O)/C=C/c2ccc(O)c(OC)c2)ccc1O [Curcumin] | inactive: 0.0938 | inactive: -0.0105 | inactive: 1.29
47 | CN1C(=O)c2ccccc2C(C)(C)C1=O | inactive: 0.175 | inactive: -0.894 | inactive: -0.809
48 | CC#Cc1cn([C@@H]2O[C@H](CO)[C@@H](O)[C@H]2OC)c(=O)[nH]c1=O | inactive: -0.105 | inactive: -0.0957 | inactive: 1.46
49 | CCc1nc(C)cn2nc(-c3cc(=O)n4cc(C5CCN(C)CC5)cc(C)c4n3)cc12 | inactive: -1.92 | inactive: 0.799 | inactive: -0.356
50 | O=C(C1CCCN(C(=O)C2CCCC2)C1)N1CCC(N2CCCC2=O)CC1 (stereo unspecified) | inactive: 3.63 |  | 
51 | CCOC(=O)[C@@H]1CCC(=O)N1 | inactive: 0.769 | inactive: 2.34 | inactive: 2.57
52 | Cc1ccccc1C(=O)NC1CCN(c2nc3ncccc3o2)CC1 | inactive: -1.36 |  | inactive: 0.499
53 | O=C(CCCN1CCN(c2ccccn2)CC1)c1ccc(F)cc1 [Azaperone] | inactive: -2.19 | inactive: -1.28 | inactive: -1.44
54 | CCCCCCCC(=O)OCC(COC(=O)CCCCCCC)OC(=O)CCCCCCC [Tricaprylin] |  | inactive: -0.982 | 
55 | CCCCCCCC(=O)OCC(COC(=O)CCCCCCC)OC(=O)CCCCCCC | inactive: -0.383 |  | inactive: 1.41
56 | COc1ccnc(CS(=O)c2nc3cc(OC(F)F)ccc3[nH]2)c1OC (single isomer, unassigned; (-)) [(-)-pantoprazole] |  | inactive: -2.14 | 
57 | CCC(=O)Oc1ccc2c(c1)CC[C@@H]1[C@@H]2CC[C@]2(C)[C@@H](OC(=O)CC)CC[C@@H]12 | inactive: 1.06 | inactive: -0.907 | inactive: 1.51
